Source: the supplement of paper PMC11732987, “Enantioselective OTUD7B fragment discovery through chemoproteomics screening and high-throughput optimisation” (Communications Chemistry, 2025)
This is one part of the list. The data scatter; read single values as rough.

Compound: ClCC(=O)N[C@H]1CCCc2ccccc12
Assay: log2 mean competition ratio of IA-DTB cysteine labelling (DMSO/compound) (log2 ratio); higher = stronger cysteine engagement by compound
Settings: treatment time: 4 h, cell line lysate: HEK293T
Procedure: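 IA-DTB competitive cysteine chemoproteomics in HEK293T RIPA lysate. Lysates were treated with compound 29 or 30 at 50 or 200 µM for 4 h, then IA-DTB (500 µM, 1 h), trypsin-digested, NeutrAvidin-enriched and analysed by diaPASEF. Competition ratio = intensity DMSO / intensity compound (n=4 treated, n=64 DMSO); binding: mean log2 CR ≥ 1 and p ≤ 0.05 plus QC filters. Target is the cysteine site.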

Target | log2 mean competition ratio (50 µM) | log2 mean competition ratio (200 µM)
PTK2 C288 (UniProt Q05397) | 0.302 | -0.233
PSMD8 C173 | -0.134 | -0.542
PUM2 C169 | 0.238 | 0.106
PTPN18 C46 (UniProt Q99952) | -0.0972 | -0.213
PSMB2 C91 | 0.486 | 0.178
RADIL C73 | -0.0615 | 0.183
PTPN13 C2229 (UniProt Q12923) | -0.751 | -0.607
PTPDC1 C22 (UniProt A2A3K4) | 0.226 | 0.496
RABGEF1 C181 (UniProt Q9UJ41) | 0.616 | -0.243
PTPN1 C32 (UniProt P18031) | 0.0288 | 0.222
PSMD4 C58 | -0.0088 | -0.392
PSAT1 C224 (UniProt Q9Y617) | 0.249 | -0.0658
PSME4 C958 (UniProt Q14997) | -0.349 | -0.0759
PTK2 C173 (UniProt Q05397) | -0.372 | -0.124
RAD54B C789 (UniProt Q9Y620) | -0.225 | 0.027
RAD54L C20 (UniProt Q92698) | 0.278 | -0.223
RAB3IP C389 (UniProt Q96QF0) | -0.0163 | 0.00105
PSIP1 C204 | -0.836 | 0.0813
RAB22A C120 (UniProt Q9UL26) | -0.206 | 0.0683
PRRC2C C2788 (UniProt Q9Y520) | 0.108 | 0.229

Laid out differently: entries from further up
Target,log2 mean competition ratio (50 µM),log2 mean competition ratio (200 µM)
PTK2 C288 (UniProt Q05397),0.302,-0.233
PUM2 C169,0.238,0.106
PSMB2 C91,0.486,0.178
RADIL C73,-0.0615,0.183
RABGEF1 C181 (UniProt Q9UJ41),0.616,-0.243
PTK2 C173 (UniProt Q05397),-0.372,-0.124
PSIP1 C204,-0.836,0.0813
RAB22A C120 (UniProt Q9UL26),-0.206,0.0683

(further entries)

Target | log2 mean competition ratio (50 µM) | log2 mean competition ratio (200 µM)
PTRH1 C20 (UniProt Q86Y79) | -0.0504 | -0.0501
PSMD2 C251 (UniProt Q13200) | -0.256 | -0.167
PRR14L C541 (UniProt Q5THK1) | 0.34 | 0.126
PTPN13 C1812 (UniProt Q12923) | -0.391 | -0.0504
RAB28 C169 (UniProt P51157) | 0.381 | -0.27
PSMD2 C779 (UniProt Q13200) | -0.325 | -0.0942
RAD50 C633 | 0.062 | -0.323
RABL2B C26 | -0.123 | 0.128
RABEPK C96 (UniProt Q7Z6M1) | -0.144 | -0.256
QSER1 C1709 | -0.317 | 0.163
PSMA6 C47 (UniProt P60900) | 0.526 | -0.118
PSMC4 C210 (UniProt P43686) | 0.738 | 0.203
RAB10 C124 (UniProt P61026) | -0.0686 | -0.0353
RAD1 C148 (UniProt O60671) | 0.0171 | -0.196
RAB4A C28 (UniProt P20338) | -0.53 | 0.492
PYGB C319 (UniProt P11216) | 0.0281 | 0.00157
RAB39A C185 | -0.106 | -0.107
PTK2 C459 (UniProt Q05397) | 0.0187 | 0.137
PTDSS1 C4 (UniProt P48651) | -0.039 | 0.421
